Measurements taken from the supplement of paper PMC12819154, “High-throughput peptide-centric local stability assay extends protein–ligand identification to membrane proteins, tissues and bacteria” (Nature Structural & Molecular Biology, 2025).
The other results are listed elsewhere or left out. Small differences around the control level are noise.

Chains of the proteins cited; added tags and fusions are not shown. Lines headed by an entry give the natural chain unless they say otherwise; changes in a name come on top.
UniProt P15311, whole entry: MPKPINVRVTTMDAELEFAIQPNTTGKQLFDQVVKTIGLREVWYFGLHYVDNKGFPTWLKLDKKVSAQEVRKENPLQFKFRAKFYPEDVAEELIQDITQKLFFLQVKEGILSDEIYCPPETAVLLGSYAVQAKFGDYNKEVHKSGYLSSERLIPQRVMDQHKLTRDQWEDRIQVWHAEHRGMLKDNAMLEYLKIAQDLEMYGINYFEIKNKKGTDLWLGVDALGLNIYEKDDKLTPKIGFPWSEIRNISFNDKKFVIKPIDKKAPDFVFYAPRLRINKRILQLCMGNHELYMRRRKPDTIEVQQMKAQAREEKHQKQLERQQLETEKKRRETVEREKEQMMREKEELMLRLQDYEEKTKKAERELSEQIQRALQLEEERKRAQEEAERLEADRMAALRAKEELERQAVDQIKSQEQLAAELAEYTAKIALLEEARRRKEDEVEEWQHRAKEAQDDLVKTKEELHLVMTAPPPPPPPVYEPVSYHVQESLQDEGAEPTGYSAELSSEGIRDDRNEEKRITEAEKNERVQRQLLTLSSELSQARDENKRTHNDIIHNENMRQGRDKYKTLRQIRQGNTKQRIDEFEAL
UniProt P23109: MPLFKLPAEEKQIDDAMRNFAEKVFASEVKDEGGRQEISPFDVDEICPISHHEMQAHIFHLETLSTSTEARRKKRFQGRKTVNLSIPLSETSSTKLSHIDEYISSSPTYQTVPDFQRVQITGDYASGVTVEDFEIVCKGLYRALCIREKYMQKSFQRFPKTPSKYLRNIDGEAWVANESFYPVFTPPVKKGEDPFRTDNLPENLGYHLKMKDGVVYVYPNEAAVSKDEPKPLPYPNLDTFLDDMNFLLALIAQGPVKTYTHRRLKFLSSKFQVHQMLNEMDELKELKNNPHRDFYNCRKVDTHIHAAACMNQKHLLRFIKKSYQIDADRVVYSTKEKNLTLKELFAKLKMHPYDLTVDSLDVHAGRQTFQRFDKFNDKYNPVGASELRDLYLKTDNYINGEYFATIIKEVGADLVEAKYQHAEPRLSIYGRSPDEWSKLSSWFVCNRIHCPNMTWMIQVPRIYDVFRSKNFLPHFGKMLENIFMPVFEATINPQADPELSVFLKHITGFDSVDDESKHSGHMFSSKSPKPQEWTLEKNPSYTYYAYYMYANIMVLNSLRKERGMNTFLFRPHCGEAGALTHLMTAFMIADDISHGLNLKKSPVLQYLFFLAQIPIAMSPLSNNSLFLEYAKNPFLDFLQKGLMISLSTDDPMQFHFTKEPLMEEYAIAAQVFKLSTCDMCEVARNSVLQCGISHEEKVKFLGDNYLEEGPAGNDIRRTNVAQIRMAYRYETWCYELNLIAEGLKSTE
UniProt P16435: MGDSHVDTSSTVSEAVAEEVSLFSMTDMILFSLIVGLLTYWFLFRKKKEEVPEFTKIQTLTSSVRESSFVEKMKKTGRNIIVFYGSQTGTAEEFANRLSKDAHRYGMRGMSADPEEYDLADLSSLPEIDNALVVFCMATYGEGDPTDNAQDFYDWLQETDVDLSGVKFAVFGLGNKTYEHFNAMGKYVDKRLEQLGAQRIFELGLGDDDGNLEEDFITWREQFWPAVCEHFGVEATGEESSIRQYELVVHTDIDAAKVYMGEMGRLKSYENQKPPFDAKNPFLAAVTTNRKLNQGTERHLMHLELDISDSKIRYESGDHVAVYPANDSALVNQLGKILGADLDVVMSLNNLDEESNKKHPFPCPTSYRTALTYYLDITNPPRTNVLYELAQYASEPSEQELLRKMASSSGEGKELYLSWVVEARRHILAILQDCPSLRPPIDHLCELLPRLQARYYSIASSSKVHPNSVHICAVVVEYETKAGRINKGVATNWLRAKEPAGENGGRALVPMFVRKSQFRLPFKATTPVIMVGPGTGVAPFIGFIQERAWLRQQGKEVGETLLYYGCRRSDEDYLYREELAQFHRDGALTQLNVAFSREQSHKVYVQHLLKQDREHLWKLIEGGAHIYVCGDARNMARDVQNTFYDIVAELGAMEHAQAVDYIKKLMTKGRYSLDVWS
UniProt P22531: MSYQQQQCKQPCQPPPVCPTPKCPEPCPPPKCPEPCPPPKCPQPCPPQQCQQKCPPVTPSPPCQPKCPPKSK
UniProt P28288: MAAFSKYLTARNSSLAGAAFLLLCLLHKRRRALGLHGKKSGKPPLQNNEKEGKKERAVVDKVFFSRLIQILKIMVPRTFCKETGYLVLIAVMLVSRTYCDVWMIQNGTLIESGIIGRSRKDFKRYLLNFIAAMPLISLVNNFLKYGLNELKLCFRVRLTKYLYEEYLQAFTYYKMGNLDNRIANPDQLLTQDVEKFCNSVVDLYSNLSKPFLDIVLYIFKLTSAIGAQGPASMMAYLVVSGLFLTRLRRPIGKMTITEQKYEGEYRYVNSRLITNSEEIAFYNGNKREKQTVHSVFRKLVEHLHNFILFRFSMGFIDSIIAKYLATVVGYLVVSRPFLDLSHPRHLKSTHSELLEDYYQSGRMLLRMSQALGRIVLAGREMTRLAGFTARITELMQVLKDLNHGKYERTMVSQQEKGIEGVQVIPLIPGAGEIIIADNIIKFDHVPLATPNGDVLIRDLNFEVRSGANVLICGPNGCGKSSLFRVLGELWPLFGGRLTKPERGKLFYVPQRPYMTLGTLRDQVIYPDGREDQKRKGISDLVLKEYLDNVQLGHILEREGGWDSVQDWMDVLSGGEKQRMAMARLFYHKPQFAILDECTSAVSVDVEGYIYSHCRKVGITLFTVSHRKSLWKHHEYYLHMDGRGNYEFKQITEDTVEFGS
UniProt P21333, whole entry: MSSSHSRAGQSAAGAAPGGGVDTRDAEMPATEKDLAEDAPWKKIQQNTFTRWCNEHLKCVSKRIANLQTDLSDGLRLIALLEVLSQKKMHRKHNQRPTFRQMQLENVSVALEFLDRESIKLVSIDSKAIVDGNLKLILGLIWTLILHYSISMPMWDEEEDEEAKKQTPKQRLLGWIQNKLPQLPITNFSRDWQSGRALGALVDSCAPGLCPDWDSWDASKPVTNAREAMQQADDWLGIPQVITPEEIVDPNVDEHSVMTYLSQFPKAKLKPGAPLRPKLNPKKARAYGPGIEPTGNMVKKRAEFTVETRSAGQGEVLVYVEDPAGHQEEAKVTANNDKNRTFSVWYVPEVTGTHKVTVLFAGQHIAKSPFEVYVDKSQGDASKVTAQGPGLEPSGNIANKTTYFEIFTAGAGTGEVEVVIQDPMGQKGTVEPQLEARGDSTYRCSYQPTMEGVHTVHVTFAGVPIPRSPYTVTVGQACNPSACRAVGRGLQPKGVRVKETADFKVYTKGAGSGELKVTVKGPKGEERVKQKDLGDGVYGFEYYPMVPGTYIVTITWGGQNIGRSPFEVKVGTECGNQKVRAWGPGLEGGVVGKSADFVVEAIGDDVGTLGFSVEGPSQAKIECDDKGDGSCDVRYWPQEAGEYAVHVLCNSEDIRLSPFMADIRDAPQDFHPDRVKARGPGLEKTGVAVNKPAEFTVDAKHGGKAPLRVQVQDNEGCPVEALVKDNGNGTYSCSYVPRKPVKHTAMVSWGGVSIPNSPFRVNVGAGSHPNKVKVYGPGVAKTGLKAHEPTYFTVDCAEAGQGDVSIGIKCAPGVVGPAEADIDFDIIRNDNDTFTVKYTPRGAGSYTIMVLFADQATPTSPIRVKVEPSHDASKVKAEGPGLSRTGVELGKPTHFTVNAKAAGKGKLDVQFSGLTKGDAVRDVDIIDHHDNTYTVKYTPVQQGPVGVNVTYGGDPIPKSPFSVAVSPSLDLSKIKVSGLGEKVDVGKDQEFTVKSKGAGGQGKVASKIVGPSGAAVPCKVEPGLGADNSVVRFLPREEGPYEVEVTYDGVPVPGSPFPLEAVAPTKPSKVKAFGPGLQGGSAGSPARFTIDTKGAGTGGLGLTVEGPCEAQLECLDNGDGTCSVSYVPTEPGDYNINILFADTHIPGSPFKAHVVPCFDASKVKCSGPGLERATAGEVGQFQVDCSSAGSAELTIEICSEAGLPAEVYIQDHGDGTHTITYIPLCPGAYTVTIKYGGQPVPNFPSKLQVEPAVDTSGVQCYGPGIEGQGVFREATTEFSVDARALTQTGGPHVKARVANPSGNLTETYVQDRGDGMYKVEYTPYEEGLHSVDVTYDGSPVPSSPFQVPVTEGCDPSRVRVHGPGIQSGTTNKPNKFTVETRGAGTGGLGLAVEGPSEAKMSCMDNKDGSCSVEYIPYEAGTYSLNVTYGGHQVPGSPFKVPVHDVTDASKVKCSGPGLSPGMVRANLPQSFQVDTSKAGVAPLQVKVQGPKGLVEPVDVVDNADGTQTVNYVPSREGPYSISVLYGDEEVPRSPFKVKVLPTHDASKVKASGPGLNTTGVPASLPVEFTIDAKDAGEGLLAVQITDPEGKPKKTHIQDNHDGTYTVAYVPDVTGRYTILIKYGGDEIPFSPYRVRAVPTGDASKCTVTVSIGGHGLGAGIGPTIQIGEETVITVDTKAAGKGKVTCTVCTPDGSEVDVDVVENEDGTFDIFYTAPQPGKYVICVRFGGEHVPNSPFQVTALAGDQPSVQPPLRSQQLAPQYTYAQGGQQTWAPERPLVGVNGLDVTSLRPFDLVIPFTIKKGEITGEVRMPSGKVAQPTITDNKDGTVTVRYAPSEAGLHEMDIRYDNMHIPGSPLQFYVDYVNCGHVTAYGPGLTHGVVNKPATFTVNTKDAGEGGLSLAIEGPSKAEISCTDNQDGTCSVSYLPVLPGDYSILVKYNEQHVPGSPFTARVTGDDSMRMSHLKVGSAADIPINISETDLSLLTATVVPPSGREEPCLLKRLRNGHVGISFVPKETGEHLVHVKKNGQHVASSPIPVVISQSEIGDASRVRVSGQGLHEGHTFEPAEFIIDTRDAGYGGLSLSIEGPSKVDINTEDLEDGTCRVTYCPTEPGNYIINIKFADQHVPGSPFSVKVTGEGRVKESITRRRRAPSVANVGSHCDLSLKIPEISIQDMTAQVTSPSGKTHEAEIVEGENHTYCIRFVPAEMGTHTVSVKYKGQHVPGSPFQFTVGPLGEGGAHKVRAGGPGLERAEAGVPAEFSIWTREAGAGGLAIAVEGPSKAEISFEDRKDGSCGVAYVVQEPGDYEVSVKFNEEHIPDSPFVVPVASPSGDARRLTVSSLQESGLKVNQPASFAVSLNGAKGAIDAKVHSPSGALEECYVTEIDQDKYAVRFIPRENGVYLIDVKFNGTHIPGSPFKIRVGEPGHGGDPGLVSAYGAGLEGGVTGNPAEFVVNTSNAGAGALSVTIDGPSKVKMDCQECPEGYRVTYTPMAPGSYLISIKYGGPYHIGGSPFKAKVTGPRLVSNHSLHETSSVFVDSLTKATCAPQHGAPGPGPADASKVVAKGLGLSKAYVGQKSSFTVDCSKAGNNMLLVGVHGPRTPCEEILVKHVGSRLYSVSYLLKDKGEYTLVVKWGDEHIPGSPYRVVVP
UniProt P23919: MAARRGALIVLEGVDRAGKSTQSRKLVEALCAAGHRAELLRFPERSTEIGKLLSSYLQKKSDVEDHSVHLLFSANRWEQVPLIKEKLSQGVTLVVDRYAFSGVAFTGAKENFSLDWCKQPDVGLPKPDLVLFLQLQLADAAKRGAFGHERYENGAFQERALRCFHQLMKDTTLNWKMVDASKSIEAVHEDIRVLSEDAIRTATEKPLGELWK
UniProt P22532: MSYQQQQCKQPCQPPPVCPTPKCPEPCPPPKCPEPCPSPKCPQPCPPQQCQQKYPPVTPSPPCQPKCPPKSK
UniProt P13994: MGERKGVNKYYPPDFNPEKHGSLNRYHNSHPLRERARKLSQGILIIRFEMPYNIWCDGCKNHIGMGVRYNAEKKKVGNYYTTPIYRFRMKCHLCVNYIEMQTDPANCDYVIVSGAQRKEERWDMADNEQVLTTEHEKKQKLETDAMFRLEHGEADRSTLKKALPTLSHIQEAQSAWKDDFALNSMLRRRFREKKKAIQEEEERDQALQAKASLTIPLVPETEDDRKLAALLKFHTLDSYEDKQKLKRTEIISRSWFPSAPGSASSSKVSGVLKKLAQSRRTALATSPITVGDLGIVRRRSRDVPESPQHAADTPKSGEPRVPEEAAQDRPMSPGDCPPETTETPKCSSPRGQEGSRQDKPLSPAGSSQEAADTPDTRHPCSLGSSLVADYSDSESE
UniProt P23526: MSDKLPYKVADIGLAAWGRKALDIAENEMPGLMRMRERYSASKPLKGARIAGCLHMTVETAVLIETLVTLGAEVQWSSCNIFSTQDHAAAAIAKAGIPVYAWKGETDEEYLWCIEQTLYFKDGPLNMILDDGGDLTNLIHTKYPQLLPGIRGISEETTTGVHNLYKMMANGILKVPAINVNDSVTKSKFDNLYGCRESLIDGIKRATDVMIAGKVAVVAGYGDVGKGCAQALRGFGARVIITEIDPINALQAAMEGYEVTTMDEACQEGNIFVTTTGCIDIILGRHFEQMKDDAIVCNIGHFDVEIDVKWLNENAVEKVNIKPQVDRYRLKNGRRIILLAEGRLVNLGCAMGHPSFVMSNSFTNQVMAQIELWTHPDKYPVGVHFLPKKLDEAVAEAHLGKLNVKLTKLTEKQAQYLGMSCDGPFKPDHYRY

Each target was assayed with CN[C@@H]1C[C@H]2O[C@@](C)([C@@H]1OC)n1c3ccccc3c3c4c(c5c6ccccc6n2c5c31)C(=O)NC4 [staurosporine] (assay: log2 fold change of tryptic peptide abundance, ligand vs vehicle (limited proteolysis) (log2 ratio); higher = more trypsin-susceptible (destabilized)). Details: ligand concentration: 20 uM; sample: K562 cleared lysate; digestion: 4 min, 22 C (HT-PELSA RT4min, Orbitrap Astral).

Target	log2 fold change
EZR (peptide sequence: DDRNEEKR, peptide start residue: 510) (UniProt P15311)	1.39
UniProt P23109 (peptide sequence: YNPVGASELR, peptide start residue: 393)	-0.243
POR (peptide sequence: IQTLTSSVR, peptide start residue: 57) (UniProt P16435)	0.157
CEBPB (peptide sequence: GALHPGCFAPLHPPPPPPPPPAELK, peptide start residue: 150) (UniProt P17676)	-0.173
UniProt P22531 (peptide sequence: QPCQPPPVCPTPK, peptide start residue: 10)	-0.0952
PRKCSH (peptide sequence: DMEESIR, peptide start residue: 386) (UniProt P14314)	-0.129
ABCD3 (peptide sequence: LITNSEEIAFYNGNKR, peptide start residue: 272) (UniProt P28288)	-0.144
UniProt P26367 (peptide sequence: QQMGADGMYDKLR, peptide start residue: 135)	0.448
APEX1 (peptide sequence: KGAVAEDGDELRTEPEAK, peptide start residue: 7) (UniProt P27695)	-0.0749
UniProt P13682 (peptide sequence: SHTGEKPYECK, peptide start residue: 216)	0.57
UniProt P14618 (peptide sequence: EAEAAIYHLQLFEELRR, peptide start residue: 384)	0.262
PFKL (peptide sequence: LLAHQKPPK, peptide start residue: 387) (UniProt P17858)	0.901
UniProt P17516 (peptide sequence: SKIADGSVKR, peptide start residue: 67)	0.689
FLNA (peptide sequence: FNGTHIPGSPFK, peptide start residue: 2406) (UniProt P21333)	0.192
HOXB9 (peptide sequence: QPGHAEHLEFPSCSFQPK, peptide start residue: 38) (UniProt P17482)	-0.5
UniProt P22033 (peptide sequence: MGQDGHDR, peptide start residue: 622)	0.377
UniProt P24539 (peptide sequence: RKEQEHMINWVEK, peptide start residue: 209)	-0.208
IDE (peptide sequence: VSVHVLAR, peptide start residue: 954) (UniProt P14735)	-0.708
PSMA4 (peptide sequence: LLDEVFFSEK, peptide start residue: 55) (UniProt P25789)	-0.0961
DTYMK (peptide sequence: EKLSQGVTLVVDR, peptide start residue: 85) (UniProt P23919)	-0.478

Random excerpt: 2 records from the list, in no set order.
Target	log2 fold change
PSMA4 (peptide sequence: LLDEVFFSEK, peptide start residue: 55) (UniProt P25789)	-0.0961
UniProt P17516 (peptide sequence: SKIADGSVKR, peptide start residue: 67)	0.689

Additional records.

Target	log2 fold change
PFKFB1 (peptide sequence: QENVLVICHQAVMR, peptide start residue: 383) (UniProt P16118)	0.396
UQCRC2 (peptide sequence: AVAFQNPQTHVIENLHAAAYR, peptide start residue: 163) (UniProt P22695)	0.318
UniProt P22532 (peptide sequence: YPPVTPSPPCQPKCPPKSK, peptide start residue: 54)	-0.685
TGM2 (peptide sequence: LAEKEETGMAMR, peptide start residue: 465) (UniProt P21980)	-0.454
RHOQ (peptide sequence: CVVVGDGAVGK, peptide start residue: 6) (UniProt P17081)	0.0581
UniProt P26639 (peptide sequence: ADMETLQR, peptide start residue: 289)	0.346
AGA (peptide sequence: NCQPNYWR, peptide start residue: 162) (UniProt P20933)	-0.269
ELK1 (peptide sequence: NKTNMNYDKLSR, peptide start residue: 51) (UniProt P19419)	-1.2
ERCC2 (peptide sequence: QMAQPFHR, peptide start residue: 723) (UniProt P18074)	0.25
SON (peptide sequence: SAASPVVSSMPER, peptide start residue: 1766) (UniProt P18583)	0.453
POLR2E (peptide sequence: QSLVDMAPK, peptide start residue: 116) (UniProt P19388)	0.307
AK4 (peptide sequence: QYKDVAKPVIELYK, peptide start residue: 173) (UniProt P27144)	0.717
CCDC130 (peptide sequence: LEHGEADR, peptide start residue: 149) (UniProt P13994)	-0.159
HRC (peptide sequence: QSHQDEETGHGQR, peptide start residue: 443) (UniProt P23327)	0.763
GLB1 (peptide sequence: MFEIDYSR, peptide start residue: 31) (UniProt P16278)	0.0787
EEF1G (peptide sequence: ILGLLDAYLKTR, peptide start residue: 138) (UniProt P26641)	-0.219
HIST1H1C (peptide sequence: AKKPAAATVTK, peptide start residue: 158) (UniProt P16403)	0.133
DARS (peptide sequence: YGISSMIQSQEKPDR, peptide start residue: 29) (UniProt P14868)	0.126
RPL35A (peptide sequence: VMLYPSRI, peptide start residue: 103) (UniProt P18077)	0.469
AHCY (peptide sequence: GISEETTTGVHNLYK, peptide start residue: 152) (UniProt P23526)	-0.518
